For 19 sequences, binding signal (log2 relative supershift) results are on record in publication PMC12370185.

The list shows a part of the results. At the low end of the ranking, values are background and their order means little.

The test has as its system c-MYC + MAX + histone octamer. The test is described as follows: Pioneer-seq (competitive nucleosome EMSA with sequencing). Conditions: 10 mM Tris-Cl pH 7.5, 50 mM NaCl, 1 mM DTT, 0.25 mg/ml BSA, 2 mM MgCl2, 0.025% Nonidet P-40, 5% glycerol; 28 nM nucleosome library; 10 min on ice then 30 min …; high values mean tight binding; double strand, one strand shown. A general note: A gel shift assay detects complexes by their altered migration in electrophoresis.
Consider “GATGGACCCTATACGCGGCCCCCAGACCAAGGGCCAACAGGCCCCAGCCTGTACCTCTCAGCTGGGTCCCAGTGAACTTGGGCCTCCAAGGGGCCTTCCCCAGGCACCAGGGGAGGGCAGAGGGCAGGGCTGGGCCTGGACTTGCAGGATGCTCAACAGAGTTTGCCCTACCTAATTCCCACACCCCTCCTCTTGTACTCTTTCCCATCTTGCCAGTCGGATAGTGTTCC”, for which the binding signal (log2 relative supershift) was -0.303.
As for “GATGGACCCTATACGCGGCAGAGAGCCCAAGACTAGAAATGCCCATATCTTCCCATGGAAAGTGTTCCTCTGATAGGCGGGAGACAGAGGACCAAATTGCAAGTTACAACCTGCAGCCTGGGAGTTTCAGGGGCTTCAACACCAAATGAAATTGGAGAACTATCAACAGGATTCAGGGTTCAGCACAGGCTCCAGCAAGACAGAGAGAAATGCCAGTCGGATAGTGTTCC”, the figure is -0.406; as for “GATGGACCCTATACGCGGCGAGGAAGAGTCCCAGGGTGATGAGGGTGAGGGTGTGTTCCCTCCCACAATTAATGCCATCACAGTGAGATCTGCCTAATAATAGGATCTCCAGACCCCAGCAAATTGTCTGCTGATCTCAGGCAATGTTTGTCTGTAAGAATCCTTCGCCCTGTGTAAACATTTTATTAGACCATTAAGTTGCCGTCAGCCTGCCAGTCGGATAGTGTTCC”, -0.0649.
As for “GATGGACCCTATACGCGGCTCTACTTCTTGTTTCTTTCCTTGCTATTTAATACTTAAAGTGTGGTGCCCCACTTGTTTGCCAGGAGCAGTATCACATCAGACTCTGCTGTTAACAAGGTCCCCAGGTGATTCATATGCACATTAAAGTTCATTTTGCACCTCTTTTGGCATTGACTTTACTTTCAGTGGCCTATTTTATGTAATGTAAAATGCCAGTCGGATAGTGTTCC”, the figure is -0.159; as for “GATGGACCCTATACGCGGCGGGTCCCCAGAGAATCTCCAGGCACACAAGTGTCTACCACAGATAAAACATCTGGTGCAGATAAGGGAACCTGCACAGGGGCTTGCCTGGACATGCCAGCAGCAGACTGGAGGCCCACATGCACTGGGGAGCTGGGGTGGAGCCACCAAGAATTCATGCCTTATGCAGAGGAGGAGCCTGGCCTCTTCAGCTGCCAGTCGGATAGTGTTCC”, -0.218; as for “GATGGACCCTATACGCGGCCGTGCCTGGAGCTTGGAATTCAGGCCAGAAACCACCAGTGGACACCAGCATTCCACACTCACTGCACAGGCTGGGGCTCAAACCAAGGCCCAGGGACAGGAAGGGACAAGCCCCAGCCCCAGCCGGACTCCCAGCCCACACAAACCATCAGGGCTTGTTTCCTGCTCCATGGAAGCCTCAGACATGTTTCATGCCAGTCGGATAGTGTTCC”, -0.181.
With “GATGGACCCTATACGCGGCAGGGAGGTGTTTGGGGTTTGGACAGCTGCTCCCTCCTTTAGGGCTGACTGTCCCATCAGGAGGGGGTTGTTTCTGTTGCTCAGTGGGGAATCTGCAGGCCTCGACAGGCTCTGAGCTGGGAAACAGGAGTGGCCCTGCCTGTCCTATGACACACTGTGAGTGGAGGGGGCTGTGGCCGGCAGGGACGTAGGTGCCAGTCGGATAGTGTTCC” the figure was -0.033.
Take “GATGGACCCTATACGCGGCATCAAGGGAAGCAGCCCACTGTGGGCACACTCAGAAAGTATGAGTGAGGGGAGGAGGTGTAGCATGGGGAGAAGAGGCCTGGGGTAGCCCCTGGACAGAAGCCCGCTCCTTTCTGCTCTCTGAGGTGTCCACTGATTCAGCCTGTTGGCCTGGCCAGAACCTGCCCTCTTCATGCCTCGGTTTCCCTGGCTTGCCAGTCGGATAGTGTTCC”: the binding signal (log2 relative supershift) is -0.582.
Take “GATGGACCCTATACGCGGCGCTTGAACTCTGAACCTGGTGGGTTGGTTAAGCCAACAAGGGGAAGGAGTCAGTGGAAGTGGGGTTGGGAAAGGGGGCCTCCATGTGTCTGCACCTGCCTGACACTACCTGCCCCATACCACACCCTCCTGACACTGCCCACCCCTACCCCACCCTCCTGACACTGCCTACCCAATACCCCACCCTCCTGTTGCCAGTCGGATAGTGTTCC”: the binding signal (log2 relative supershift) is -0.0988.
With “GATGGACCCTATACGCGGCGCAAAGCTCCAGTACCCTCAGGCCACACCTACTGGAAAAATATATGTCAGCCCCAGAAAATTGTGGGCAAGATGAGGCAAGTCCTGAGCAACACAGGAAACTGCCCTCCTCCTTTTCTGGCCCCGCTTCCACTGTGATGCTAAAGATCGCATCAAGGCTGGTCATCCAATCAGCAGGATGTAAGAGGGTCATGCCAGTCGGATAGTGTTCC”, the binding signal (log2 relative supershift) was -0.00118.
As for “GATGGACCCTATACGCGGCGATAATTTGGATTTAGGGTAAGGGACAGCGTTGCTCATCTACAGGACCACAAGGGGTTCTGTGCTGCAGGGGCATAAGAAGGAGCATGTGCCATGTGGGGAATGCAGGGAAGCAGGGCAGAGGGACGTAGGAGAGGAAGATTAAGAGCCAAGGGGGAGGGGCAGGCAGGCAGGTCCTTTTCCATCTTTTCATGCCAGTCGGATAGTGTTCC”, the figure is -0.601; as for “GATGGACCCTATACGCGGCTGGGGCTCAGTGTTCTGGGAGAAGTGGGTTCTAGCTCTGCCGCTGGGCCCTGGGTGTGGGCGCCCAATCGTCCGGGAAGCGCCCACAAGCCCAGGCAAGTCCCGACAGCGGTAGCCCGAGCCCAAGCGCTGCGGGCCCGGCGTCCCAGTGACCCCAGTTCCGGGTCCGAGGCACCGCCGGCGGCATCTCCCTGCCAGTCGGATAGTGTTCC”, -0.0292; as for “GATGGACCCTATACGCGGCTGTGTTTTAAAAAAGAAGTATTTCTTGCAAACACTTATGACTTGTCTATGTCTTCTACAAGTCTGGACATGTCTTGGAACATTATCTGTGTTCTGTGGGTTACAAGGCTTGTCGAGGTCAAAGTACTCAGACATGAGACAGGCACCTTGTATACTCCAGAGAGCTAGAAATACTTGGAGATTAAGTCTAGTTGCCAGTCGGATAGTGTTCC”, -0.199.
As to “GATGGACCCTATACGCGGCTGGGATTTGGGAATGATGTGTGTGAATTAGAGAGATTTCGAGACCTGAAATAGAGAAAAGCAAGTTAAGACATCAACTGGGGCCCAGAAACAGCACTACAGCGGGGACGACCCACCTCTCAGATGCCTGGTGAGATAAAGAAAGGTCTGGCTGACTCCACTGCCCAGTACTGTGAAGCAGCAGTGAAGACTTGCCAGTCGGATAGTGTTCC”, the binding signal (log2 relative supershift) is -0.089.
With “GATGGACCCTATACGCGGCTGGTTCTCTCACCCCAGACACACCAGGGCTGATCCAACATATCTGGCTCAACATCACCCACAAGTCTCAACAGGGCCCTGAAAACCACCTCTGACTCCACAACCCACTGTCCCACGCCCTGGGAGGTAGGCTGTGTCTGGGCTTGCTCACGTCTGGGAACAGCAAAGTCTGGCCCAAGCCTGTTCAGCCTGTGCCAGTCGGATAGTGTTCC” the figure was -0.103; with “GATGGACCCTATACGCGGCTGAAACAATCCTTACTCAGAGAGTGGATTTGCATCTCTAATAGAGTTCAGGCTCTGTTTGTGAAAGGCTTTTGCTAGGCCTGACCCCATGTCTCAGGAGCACATTGATACCCAGCGCCTTGCCTTTGCCTTGTCCCACACCACAGAGAGCAGTATCATGGGAAAATGCACTAACCTAAAAGAAAGCAAAGGTGCCAGTCGGATAGTGTTCC”, -0.417.
With “GATGGACCCTATACGCGGCCACTATTTCACGACCTTGCACATAGTTCATTTGTTTCATACATCACACACTGTTGTGTTACGTATTGACATGGCTGTCTTCACAACTAGGCTCTGAGCACCTTAAAGGCTGGGACTGACGCCAGTCACAATCTAATGCAAAGGACAGTGCTGTTATGGAAATGTTTATTGAACTGAACTGAAAATCCTGCCTGCCAGTCGGATAGTGTTCC” the figure was -0.172; with “GATGGACCCTATACGCGGCACACAAACTCTTTCCCCCTTGTCCGTTTGCAGGCTCTCTCATCTGGCACCTATAGTGACACCTGCTCCTTTGAGTGGCCCCTTGCCCAGGACACAGCTGTGTTCCTTCATGGCATCATTTGTGTGCTGGCTCAGGCCAGCCTATGGTCCCTGCTCCCCAAGCCTCTCACTGAAGAGAAAGGCACTGAAAGGTGCCAGTCGGATAGTGTTCC”, -0.104.
As for “GATGGACCCTATACGCGGCTTTTAAAAATCAATGGCTGATAATACTGTTATCTGTGGTTATACAGCTGATACCAGCATTAAGGACCAAGGTGTCTGTACTAGTGTTTGTATTGCAGGAGGTGGAGAGCGAACAATACCATGAAAAGCAACAAGTTCCTGTGTGCTGCTATATTTGGATAAGAGAGGAAGAATGAGATGGAGGGACTTGTTTGCCAGTCGGATAGTGTTCC”, the figure is -0.112.
